This note sets out measurements from patent US20160279215A1, “NOVEL PEPTIDES AND COMBINATION OF PEPTIDES FOR USE IN IMMUNOTHERAPY AGAINST VARIOUS TUMORS” (immatics biotechnologies GmbH, priority 2015, published 2016).

For some of these results: Expression grades refer to the transcript from which the peptide derives; gene names, where given, were looked up from the sequence.

A short description of data set [1]: Identification and label-free relative LC-MS quantitation of HLA-presented peptides on tumor and normal tissue samples (XPRESIDENT presentation profiles). Further details: species or system human. The note with it: for Entities of particular interest: entities where the peptide was over-presented on cancer samples compared to normal tissues; for Additional entities of particular interest (presentation of selected peptides across entities): tumor entities on which the HLA-presented peptide was found, entity abbreviations defined in the title of Table 4B.

In data set [2] the test system is source genes of the peptides (mRNA) in tumor and normal tissue. The experiment in a line: Expression profiling of source genes by RNAseq (target coverage). Further details: species or system human. The note with it: share of tumors with more than 1.5-fold over-expression vs highest-expressing relevant normal tissue; for Target coverage for source genes, AML (%): acute myeloid leukemia; for Target coverage for source genes, BRCA (%): breast cancer; for Target coverage for source genes, CLL (%): chronic leukemia (CLL); for Target coverage for source genes, OSCAR (%): esophageal cancer incl. gastric-oesophageal junction; for Target coverage for source genes, GBC_CCC (%): gallbladder adenocarcinoma and cholangiocarcinoma; for Target coverage for source genes, MEL (%): melanoma; for Target coverage for source genes, NHL (%): non-Hodgkin lymphoma; for Target coverage for source genes, OC (%): ovarian cancer; for Target coverage for source genes, SCLC (%): small cell lung cancer; for Target coverage for source genes, UBC (%): urinary bladder cancer; for Target coverage for source genes, UTC (%): uterine cancer.

Take “18: peptide found in KIF18A (gene looked up) (KTASINQNV; listed as Homo sapiens) [compound 18]”: in data set [1], the “Entities of particular interest” value is on record as “NSCLC, CRC, PC, OSCAR, OC” and the “Additional entities of particular interest (presentation of selected peptides across entities)” value was “SCLC, UBC, UTC, MEL”. Moreover, in data set [2], the “Target coverage for source genes, AML (%)” value (“Target coverage … AML (%)” below) is given as “I (<19% over-expression = I)”; the “Target coverage for source genes, BRCA (%)” value (“Target coverage … BRCA (%)” below) is recorded as “I (<19% over-expression = I)”; the “Target coverage for source genes, CLL (%)” value (“Target coverage … CLL (%)” for short) was “I (<19% over-expression = I)”; the “Target coverage for source genes, OSCAR (%)” value (“Target coverage … OSCAR (%)” for short) is on record as “I (<19% over-expression = I)”. In addition, in data set [2], the “Target coverage for source genes, GBC_CCC (%)” value (shortened to “Target coverage … GBC_CCC (%)”) is on record as “I (<19% over-expression = I)”; the “Target coverage for source genes, MEL (%)” value (shortened to “Target coverage … MEL (%)”) is on record as “I (<19% over-expression = I)”; the “Target coverage for source genes, NHL (%)” value (from here on “Target coverage … NHL (%)”) was “I (<19% over-expression = I)”; the “Target coverage for source genes, OC (%)” value is on record as “I (<19% over-expression = I)”. In addition, in data set [2], the “Target coverage for source genes, SCLC (%)” value (from here on “Target coverage … SCLC (%)”) was “II (20-49% = II)”; the “Target coverage for source genes, UBC (%)” value (from here on “Target coverage … UBC (%)”) was “I (<19% over-expression = I)”; the “Target coverage for source genes, UTC (%)” value (“Target coverage … UTC (%)” for short) is listed as “I (<19% over-expression = I)”.
Regarding “43: peptide found in CCR8 (gene looked up) (LLIPFTIFM; listed as Homo sapiens) [compound 43]”, in data set [1], the “Entities of particular interest” value is “NSCLC, MEL, CRC, OC” and the “Additional entities of particular interest (presentation of selected peptides across entities)” value was “SCLC, GBC_CCC, NHL”. Moreover, in data set [2], the “Target coverage … AML (%)” value is “I (<19% over-expression = I)”; the “Target coverage … BRCA (%)” value is recorded as “II (20-49% = II)”; the “Target coverage … CLL (%)” value is “I (<19% over-expression = I)”; the “Target coverage … OSCAR (%)” value is listed as “IV (>70% = IV)”. Further, in data set [2], the “Target coverage … MEL (%)” value is recorded as “II (20-49% = II)”; the “Target coverage for source genes, OC (%)” value is recorded as “I (<19% over-expression = I)”; the “Target coverage … SCLC (%)” value is on record as “I (<19% over-expression = I)”; the “Target coverage … UBC (%)” value is given as “II (20-49% = II)”. Further, in data set [2], the “Target coverage … UTC (%)” value is “I (<19% over-expression = I)”.
As to “147: peptide found in CNR2 (gene looked up) (GLLSALENV; listed as Homo sapiens) [compound 147]”, in data set [1], the “Additional entities of particular interest (presentation of selected peptides across entities)” value is given as “CLL, NHL”. In data set [2], the “Target coverage … AML (%)” value was “I (<19% over-expression = I)”; the “Target coverage … BRCA (%)” value is listed as “I (<19% over-expression = I)”; the “Target coverage … CLL (%)” value is reported as “IV (>70% = IV)”; the “Target coverage … OSCAR (%)” value is recorded as “I (<19% over-expression = I)”. In data set [2], the “Target coverage … GBC_CCC (%)” value is on record as “I (<19% over-expression = I)”; the “Target coverage … MEL (%)” value is on record as “I (<19% over-expression = I)”; the “Target coverage … NHL (%)” value is “III (50-69% = III)”; the “Target coverage for source genes, OC (%)” value is recorded as “I (<19% over-expression = I)”. In addition, in data set [2], the “Target coverage … SCLC (%)” value was “I (<19% over-expression = I)”; the “Target coverage … UBC (%)” value is “I (<19% over-expression = I)”; the “Target coverage … UTC (%)” value is recorded as “I (<19% over-expression = I)”.
On to “148: peptide found in CNR2 (gene looked up) (YLILSSHQL; listed as Homo sapiens) [compound 148]”, for which the “Additional entities of particular interest (presentation of selected peptides across entities)” value in data set [1] is listed as “CLL, NHL”. In data set [2], the “Target coverage … AML (%)” value is recorded as “I (<19% over-expression = I)”; the “Target coverage … BRCA (%)” value is “I (<19% over-expression = I)”; the “Target coverage … CLL (%)” value was “IV (>70% = IV)”; the “Target coverage … OSCAR (%)” value is “I (<19% over-expression = I)”. In addition, in data set [2], the “Target coverage … GBC_CCC (%)” value is recorded as “I (<19% over-expression = I)”; the “Target coverage … MEL (%)” value is listed as “I (<19% over-expression = I)”; the “Target coverage … NHL (%)” value is recorded as “III (50-69% = III)”; the “Target coverage for source genes, OC (%)” value is given as “I (<19% over-expression = I)”. In data set [2], the “Target coverage … SCLC (%)” value is on record as “I (<19% over-expression = I)”; the “Target coverage … UBC (%)” value is listed as “I (<19% over-expression = I)”; the “Target coverage … UTC (%)” value is given as “I (<19% over-expression = I)”.
For the substance “152: peptide found in CXCR5 (gene looked up) (ILVTSIFFL; listed as Homo sapiens) [compound 152]”, in data set [1], the “Additional entities of particular interest (presentation of selected peptides across entities)” value was “CLL, NHL”. For the same substance, in data set [2], the “Target coverage … AML (%)” value is “I (<19% over-expression = I)”; the “Target coverage … BRCA (%)” value is on record as “I (<19% over-expression = I)”; the “Target coverage … CLL (%)” value is “II (20-49% = II)”; the “Target coverage … OSCAR (%)” value was “I (<19% over-expression = I)”. In addition, in data set [2], the “Target coverage … GBC_CCC (%)” value is recorded as “I (<19% over-expression = I)”; the “Target coverage … MEL (%)” value was “I (<19% over-expression = I)”; the “Target coverage … NHL (%)” value was “II (20-49% = II)”; the “Target coverage for source genes, OC (%)” value is reported as “I (<19% over-expression = I)”. In data set [2], the “Target coverage … SCLC (%)” value is “I (<19% over-expression = I)”; the “Target coverage … UBC (%)” value is recorded as “I (<19% over-expression = I)”; the “Target coverage … UTC (%)” value was “I (<19% over-expression = I)”.
Turning to “156: peptide found in CYSLTR1 (gene looked up) (VILTSSPFL; listed as Homo sapiens) [compound 156]”, in data set [1], the “Additional entities of particular interest (presentation of selected peptides across entities)” value was “CLL, BRCA, AML, NHL”. In addition, in data set [2], the “Target coverage … AML (%)” value is given as “I (<19% over-expression = I)”; the “Target coverage … BRCA (%)” value is “I (<19% over-expression = I)”; the “Target coverage … CLL (%)” value is listed as “II (20-49% = II)”; the “Target coverage … OSCAR (%)” value is given as “I (<19% over-expression = I)”. In data set [2], the “Target coverage … GBC_CCC (%)” value was “I (<19% over-expression = I)”; the “Target coverage … MEL (%)” value is listed as “I (<19% over-expression = I)”; the “Target coverage … NHL (%)” value is listed as “I (<19% over-expression = I)”; the “Target coverage for source genes, OC (%)” value was “I (<19% over-expression = I)”. In data set [2], the “Target coverage … SCLC (%)” value is on record as “I (<19% over-expression = I)”; the “Target coverage … UBC (%)” value is “I (<19% over-expression = I)”; the “Target coverage … UTC (%)” value is “I (<19% over-expression = I)”.
Regarding “158: peptide found in ERCC4 (gene looked up) (YLDPLWHQL; listed as Homo sapiens) [compound 158]”, in data set [1], the “Entities of particular interest” value is reported as “PC, OC” and the “Additional entities of particular interest (presentation of selected peptides across entities)” value is “CLL, MEL, NHL”. Further, in data set [2], the “Target coverage … AML (%)” value was “I (<19% over-expression = I)”; the “Target coverage … BRCA (%)” value was “I (<19% over-expression = I)”; the “Target coverage … CLL (%)” value was “I (<19% over-expression = I)”; the “Target coverage … OSCAR (%)” value is “I (<19% over-expression = I)”. In data set [2], the “Target coverage … GBC_CCC (%)” value is listed as “I (<19% over-expression = I)”; the “Target coverage … MEL (%)” value is “I (<19% over-expression = I)”; the “Target coverage … NHL (%)” value is reported as “I (<19% over-expression = I)”; the “Target coverage for source genes, OC (%)” value is recorded as “I (<19% over-expression = I)”. In addition, in data set [2], the “Target coverage … SCLC (%)” value is recorded as “II (20-49% = II)”; the “Target coverage … UBC (%)” value was “I (<19% over-expression = I)”; the “Target coverage … UTC (%)” value is “I (<19% over-expression = I)”.
Turning to “169: peptide found in HTR7 (gene looked up) (ALADLSVAV; listed as Homo sapiens) [compound 169]”, the “Additional entities of particular interest (presentation of selected peptides across entities)” value in data set [1] is recorded as “NSCLC, HCC, OSCAR, OC, UBC, UTC, GBC_CCC, MEL, AML”. In data set [2], the “Target coverage … AML (%)” value is listed as “I (<19% over-expression = I)”; the “Target coverage … BRCA (%)” value is reported as “I (<19% over-expression = I)”; the “Target coverage … CLL (%)” value was “I (<19% over-expression = I)”; the “Target coverage … OSCAR (%)” value is listed as “II (20-49% = II)”. Besides, in data set [2], the “Target coverage … GBC_CCC (%)” value is on record as “I (<19% over-expression = I)”; the “Target coverage … MEL (%)” value is recorded as “I (<19% over-expression = I)”; the “Target coverage … NHL (%)” value was “I (<19% over-expression = I)”; the “Target coverage for source genes, OC (%)” value is “I (<19% over-expression = I)”. In data set [2], the “Target coverage … SCLC (%)” value is on record as “I (<19% over-expression = I)”; the “Target coverage … UBC (%)” value is “III (50-69% = III)”; the “Target coverage … UTC (%)” value was “I (<19% over-expression = I)”.
